Data as given in PubChem BioAssay AID504808 (Drosophila RNAi Screening Center, 2011).

Aim: 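Genes whose loss lifts activity of an E2F-responsive reporter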 (primary screen)
System: Drosophila S2 cells
Reagent: long dsRNA against Drosophila genes
Read-out: 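Firefly luciferase driven by E2F sites, normalised to Renilla luciferase on the same minimal promoter, measured by plate reader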
Scale: E2F firefly: higher = more E2F reporter activity; Renilla normaliser: higher = more normaliser reporter signal
Active means: 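Called active if the normalised E2F reporter went up by over 50%; the cutoff is arbitrary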
The deposit covers about 21,000 reagents; shown is a random part of those that have a named target and a result. Of all reagents, 18 (0.084%) are marked active. 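Raw counts without plate normalisation, one of two replicates; the ratio scores behind the calls were not deposited.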 Not stated in the record: the amount of reagent, the time to read-out.

no.	gene	amplicon	E2F firefly, rep 1	Renilla normaliser, rep 1	activity call
1	CG10140	DRSC09704	1.27e5	6458	inactive
2	Sf3a2 (Splicing factor 3a subunit 2)	DRSC09801	75886	3803	inactive
3	Dpy-30L2 (Dpy-30-like 2)	DRSC08205	98739	4175	inactive
4	Glyp (Glycogen phosphorylase)	DRSC00752	45645	3644	inactive
5	CG6712	DRSC02981	84979	4354	inactive
6	Ddr (Discoidin domain receptor)	DRSC00922	1.28e5	5548	inactive
7	Ddr (Discoidin domain receptor)	DRSC00923	1.29e5	5772	inactive
8	Ddr (Discoidin domain receptor)	DRSC02150	1.50e5	4623	inactive
9	Ddr (Discoidin domain receptor)	DRSC03229	1.63e5	5360	inactive
10	Ddr (Discoidin domain receptor)	DRSC03230	1.38e5	4932	inactive
11	Rpp14b (Ribonuclease P/MRP subunit p14 b)	DRSC15063	1.16e5	5953	inactive
12	CG3434	DRSC10365	69047	3682	inactive
13	CG5681	DRSC02876	1.01e5	4715	inactive
14	Drl-2 (Derailed 2)	DRSC05393	1.31e5	4823	inactive
15	Drl-2 (Derailed 2)	DRSC06155	97869	4402	inactive
16	Drl-2 (Derailed 2)	DRSC06858	1.01e5	4588	inactive
17	srl (spargel)	DRSC12340	1.41e5	7114	inactive
18	BBS9 (Bardet-Biedl syndrome 9)	DRSC04257	1.22e5	5078	inactive
19	RN-tre (Related to the N terminus of tre oncogene)	DRSC07521	98842	4348	inactive
20	Shawl (Shaw-like)	DRSC02209	1.42e5	5061	inactive
21	Shawl (Shaw-like)	DRSC02748	1.47e5	5801	inactive
22	yellow-f2	DRSC16372	77957	3395	inactive
23	CG16782	DRSC18118	1.08e5	5394	inactive
24	yata	DRSC15408	1.24e5	6532	inactive
25	CR11023 (pseudo)	DRSC00302	1.39e5	5551	inactive
26	CG14294	DRSC14774	1.36e5	8436	inactive
27	CG33286	DRSC11691	1.32e5	6873	inactive
28	CG14229	DRSC19585	1.05e5	5597	inactive
29	eIF4E5 (eukaryotic translation initiation factor 4E5)	DRSC10975	96505	3639	inactive
30	Sox14 (Sox box protein 14)	DRSC04656	1.09e5	4619	inactive
31	CG10307	DRSC04057	87104	3723	inactive
32	Sms (Spermine synthase)	DRSC10408	1.24e5	7504	inactive
33	BBS1 (Bardet-Biedl syndrome 1)	DRSC10196	52547	2955	inactive
34	CG10680	DRSC02093	93500	4321	inactive
35	CG34302	DRSC12751	80253	4038	inactive
36	Osbp (Oxysterol binding protein)	DRSC16779	82394	3891	inactive
37	Aef1 (Adult enhancer factor 1)	DRSC11605	1.25e5	6284	inactive
38	zld (zelda)	DRSC19486	1.35e5	4457	inactive
39	CG41099	DRSC21049	1.37e5	5783	inactive
40	CG41099	DRSC21051	1.34e5	5660	inactive
41	hid (head involution defective)	DRSC11316	1.56e5	8227	inactive
42	CG8349	DRSC03083	1.36e5	4636	inactive
43	CG32091	DRSC10141	1.25e5	7773	inactive
44	CG32091	DRSC10820	1.22e5	6878	inactive
45	Cpr65Av (Cuticular protein 65Av)	DRSC09727	97145	3555	inactive
46	CG1146	DRSC08189	67450	2951	inactive
47	mRpL23 (mitochondrial ribosomal protein L23)	DRSC08307	97028	4843	inactive
48	scny (scrawny)	DRSC10509	83476	3904	inactive
49	scny (scrawny)	DRSC10510	77561	2927	inactive
50	Pgls (6-phosphogluconolactonase)	DRSC19769	1.36e5	6044	inactive
51	CR18166 (pseudo)	DRSC17260	73226	2621	inactive
52	CR18166 (pseudo)	DRSC18147	69341	5942	inactive
53	Clp (Clipper)	DRSC00746	1.84e5	5835	inactive
54	CG4962	DRSC10464	1.52e5	6226	inactive
55	CG14839	DRSC14963	1.09e5	5313	inactive
56	Tmtc4 (Transmembrane O-mannosyltransferase targeting cadherins 4)	DRSC15702	1.07e5	6882	inactive
57	RpL15 (Ribosomal protein L15)	DRSC20963	91469	5570	inactive
58	Bro	DRSC08149	95875	4439	inactive
59	Teh3 (tipE homolog 3)	DRSC08537	1.03e5	3925	inactive
60	gbb (glass bottom boat)	DRSC04687	1.03e5	3936	inactive
61	CG9003	DRSC07317	98244	4563	inactive
62	CG31781 (retired record)	DRSC02431	88959	3853	inactive
63	CG31781 (retired record)	DRSC02432	1.13e5	5132	inactive
64	CG7430	DRSC10845	70882	3391	inactive
65	insb (insensible)	DRSC06995	1.28e5	4444	inactive
66	Nhe2 (Na[+]/H[+] hydrogen exchanger 2)	DRSC03172	92237	4393	inactive
67	Nhe2 (Na[+]/H[+] hydrogen exchanger 2)	DRSC03377	85518	4295	inactive
68	Cf2 (Chorion factor 2)	DRSC00744	1.10e5	136	inactive
69	Or94b (Odorant receptor 94b)	DRSC16773	1.07e5	5712	inactive
70	Rep (Rab escort protein)	DRSC07526	72915	3307	inactive
71	pHCl-1 (pH-sensitive chloride channel 1)	DRSC09401	1.34e5	3760	inactive
72	pHCl-1 (pH-sensitive chloride channel 1)	DRSC09991	1.72e5	7593	inactive
73	pHCl-1 (pH-sensitive chloride channel 1)	DRSC10589	1.64e5	8585	inactive
74	SPH93 (Serine protease homolog 93)	DRSC02978	1.12e5	4800	inactive
75	CG9257	DRSC03173	1.01e5	4297	inactive
76	Def (Defensin)	DRSC07398	1.32e5	4649	inactive
77	RyR (Ryanodine receptor)	DRSC07543	1.52e5	5184	inactive
78	gnu (giant nuclei)	DRSC10497	81781	3696	inactive
79	TER94 (Transitional endoplasmic reticulum 94)	DRSC07560	3320	59	inactive
80	CG34236	DRSC05435	1.21e5	5016	inactive
81	ms(3)76Cc (male sterile (3) 76Cc)	DRSC11071	1.41e5	7300	inactive
82	FoxK (Forkhead box K)	DRSC09859	61157	3583	inactive
83	Polr2L (RNA polymerase II, I and III subunit L)	DRSC14630	79304	5757	inactive
84	if (inflated)	DRSC20341	2.26e5	10743	inactive
85	CG33514	DRSC08471	1.04e5	3710	inactive
86	CG33514	DRSC08472	84298	3486	inactive
87	CG7920	DRSC16346	1813	860	inactive
88	CG17721	DRSC15253	1.43e5	6130	inactive
89	Gr59b (Gustatory receptor 59b)	DRSC04179	1.02e5	4424	inactive
90	CG13994	DRSC02326	1.40e5	5099	inactive
91	Rcd-1 (Required for cell differentiation 1)	DRSC19569	1.21e5	6618	inactive
92	Chsy (Chondroitin sulfate synthase)	DRSC20175	1.50e5	5838	inactive
93	Chsy (Chondroitin sulfate synthase)	DRSC20176	1.53e5	5927	inactive
94	DCAF12 (DDB1 and CUL4 associated factor 12)	DRSC15475	63005	3351	inactive
95	CG10472	DRSC09730	75244	3990	inactive
96	kipf (kipferl)	DRSC15446	1.36e5	6174	inactive
97	CG10417	DRSC04846	80724	3487	inactive
98	PK2-R2 (Pyrokinin 2 receptor 2)	DRSC16448	1.20e5	5689	inactive
99	Nop60B (Nucleolar protein at 60B)	DRSC04627	77981	3611	inactive
100	CG33232 (retired record)	DRSC08187	75770	3018	inactive
101	CG33232 (retired record)	DRSC08495	97571	3523	inactive
102	Dpy-30L1 (Dpy-30-like 1)	DRSC02959	1.55e5	5394	inactive
103	Plod (procollagen lysyl hydroxylase)	DRSC10601	79281	3691	inactive
104	Plod (procollagen lysyl hydroxylase)	DRSC10602	1.10e5	6075	inactive
105	CG6071	DRSC10579	1.16e5	6827	inactive
106	Vml (Vitelline membrane-like)	DRSC17695	85244	2560	inactive
107	Vml (Vitelline membrane-like)	DRSC18529	1.16e5	5633	inactive

Records above whose target name begins with V or v:
gene	amplicon	E2F firefly, rep 1	Renilla normaliser, rep 1	activity call
Vml (Vitelline membrane-like)	DRSC17695	85244	2560	inactive
Vml (Vitelline membrane-like)	DRSC18529	1.16e5	5633	inactive
